These are yes or no findings as the source states them, for the method shown. Binding seen in cells or lysates may run through a third protein. Some entries that bind do so weakly or less than the wild type.

The chains behind the UniProt entries cited, without tags or fusion partners. Where a name states a change or a piece, a line headed by the entry shows the natural chain unless it says otherwise. Residues count along the entry.
UniProt Q96P20: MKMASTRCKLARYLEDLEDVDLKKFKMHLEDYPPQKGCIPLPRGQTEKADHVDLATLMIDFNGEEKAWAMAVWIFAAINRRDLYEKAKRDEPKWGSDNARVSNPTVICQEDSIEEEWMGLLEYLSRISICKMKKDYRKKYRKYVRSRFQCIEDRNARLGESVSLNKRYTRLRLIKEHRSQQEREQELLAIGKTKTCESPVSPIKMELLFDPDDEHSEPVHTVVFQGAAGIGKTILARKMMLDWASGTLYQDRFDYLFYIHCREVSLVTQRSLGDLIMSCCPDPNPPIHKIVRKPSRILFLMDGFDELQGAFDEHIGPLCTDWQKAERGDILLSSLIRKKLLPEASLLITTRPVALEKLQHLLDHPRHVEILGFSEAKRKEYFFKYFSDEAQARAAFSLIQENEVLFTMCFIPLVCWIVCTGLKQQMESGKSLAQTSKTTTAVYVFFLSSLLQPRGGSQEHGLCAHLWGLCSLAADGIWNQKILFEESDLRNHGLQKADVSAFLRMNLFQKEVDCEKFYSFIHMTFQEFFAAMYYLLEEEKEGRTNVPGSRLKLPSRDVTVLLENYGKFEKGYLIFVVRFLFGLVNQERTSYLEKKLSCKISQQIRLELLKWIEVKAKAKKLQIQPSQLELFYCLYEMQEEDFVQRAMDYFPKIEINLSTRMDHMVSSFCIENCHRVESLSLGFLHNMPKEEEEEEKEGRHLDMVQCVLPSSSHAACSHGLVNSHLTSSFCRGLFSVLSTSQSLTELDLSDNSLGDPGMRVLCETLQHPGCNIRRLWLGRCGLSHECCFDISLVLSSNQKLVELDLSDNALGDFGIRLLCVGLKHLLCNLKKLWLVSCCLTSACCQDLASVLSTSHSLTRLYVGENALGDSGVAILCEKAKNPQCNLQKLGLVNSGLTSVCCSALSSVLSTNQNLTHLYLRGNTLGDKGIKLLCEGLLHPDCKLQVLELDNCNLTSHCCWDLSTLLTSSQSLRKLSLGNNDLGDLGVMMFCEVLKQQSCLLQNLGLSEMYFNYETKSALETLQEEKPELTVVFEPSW
Flag-NLRP3_(132-1036): residues 132-1036 of Q96P20
UniProt Q7L804: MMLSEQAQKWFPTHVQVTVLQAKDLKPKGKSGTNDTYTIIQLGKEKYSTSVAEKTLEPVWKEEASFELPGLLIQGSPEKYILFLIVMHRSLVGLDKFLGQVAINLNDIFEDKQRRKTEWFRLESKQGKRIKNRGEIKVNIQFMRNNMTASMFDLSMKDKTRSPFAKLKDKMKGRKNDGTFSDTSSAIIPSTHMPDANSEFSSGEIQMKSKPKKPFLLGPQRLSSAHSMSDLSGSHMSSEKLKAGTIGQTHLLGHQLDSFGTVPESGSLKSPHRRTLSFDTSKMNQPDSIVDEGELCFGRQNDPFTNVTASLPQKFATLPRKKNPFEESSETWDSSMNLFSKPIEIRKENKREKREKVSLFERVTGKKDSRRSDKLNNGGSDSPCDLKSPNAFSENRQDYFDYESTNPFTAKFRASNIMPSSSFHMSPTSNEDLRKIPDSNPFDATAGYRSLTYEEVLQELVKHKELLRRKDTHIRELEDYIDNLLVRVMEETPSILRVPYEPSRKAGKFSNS
Flag-FIP2_(1-192): residues 1-192 of Q7L804
Flag-FIP2_(193-512): residues 193-512 of Q7L804
UniProt Q9ULZ3: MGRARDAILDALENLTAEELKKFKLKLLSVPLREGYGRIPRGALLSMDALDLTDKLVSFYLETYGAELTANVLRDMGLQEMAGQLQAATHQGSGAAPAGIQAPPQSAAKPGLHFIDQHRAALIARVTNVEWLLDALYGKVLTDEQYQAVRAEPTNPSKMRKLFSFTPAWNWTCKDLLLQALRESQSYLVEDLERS

Holding throughout (experiment): co-IP
Assay [1] has as its target Flag-NLRP3_(132-1036) (human) (UniProt Q96P20).
For assay [2], the target named is Flag-NLRP3 (full length human NLRP3) (human) (UniProt Q96P20).
Assay [3] deals with Flag-FIP2 (full-length Rab11-FIP2) (human) (UniProt Q7L804).
Assay [4] deals with Flag-FIP2_(1-192) (human) (UniProt Q7L804).
Assay [5] addresses Flag-FIP2_(193-512) (human) (UniProt Q7L804).

Take “EGFP-FIP2 (Rab11-FIP2) (from UniProt Q7L804 1-512)”: the values for the binding result in assay [1] and in assay [2] were “no binding” and “binds”, respectively. As to HA-ASC (from UniProt Q9ULZ3 1-195), the binding entry in assay [3] is recorded as “no binding”. As for “EGFP-FIP2_(I481E) (from UniProt Q7L804 1-512)”, the binding entry in assay [2] is reported as “no binding”.

In the case of EGFP-NLRP3 (from UniProt Q96P20 1-1036), the values for the binding entry in assay [4], in assay [3] and in assay [5] were “binds”, “binds” and “no binding”, respectively.
